PubChem BioAssay AID1159578 | Peter MacCallum Cancer Centre | 2015

Purpose: 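siRNA pools altering how lymphatic endothelial cells close a scratch wound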 (primary screen)
Cells: human lymphatic endothelial cells
Reagent: siRNA pool against human genes, 40 nM
Timing: 48 h after transfection
Detection: 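Cells stained with dye and imaged after a scratch; covered wound area and nuclei counted, duplicates averaged, migration set against mock wells and turned into a robust z-score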
Reading the numbers: migration robust z-score: higher = faster migration into the scratch; nuclei per well: higher = more cells in the well
Call rule: 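Pools averaging fewer than 3300 nuclei are never called; remaining pools count as changed when migration robust z lies outside -2 to 2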
Meaning of the calls: active = migration changed; inactive = no migration change, or too few cells
The whole screen tested about 18,000 reagents; below is an unselected part. About 1,030 of them (5.7%) count as active. 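Inactive calls also include pools with fewer than 3300 nuclei, whose migration was not assessed.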 Raw values vary from plate to plate and are shown uncorrected. Further read-outs or replicates are left out here.

gene | PubChem SID | migration robust z-score | nuclei per well, duplicate mean | Outcome
SMOC2 | SID255359824 | 0.5 | 5194 | inactive
SH3GLB1 | SID255357475 | 0.03 | 6412 | inactive
PEF1 | SID255366043 | -0.16 | 5496 | inactive
MYH3 | SID255351099 | 1.43 | 5702 | inactive
KLF12 | SID255355731 | -0.93 | 5380 | inactive
PPTC7 | SID255363710 | -1.38 | 5464 | inactive
GAS2 | SID255349832 | -0.99 | 5174 | inactive
H2AJ | SID255358845 | -0.52 | 3862 | inactive
SECISBP2 | SID255360184 | 1.03 | 5642 | inactive
TMEM119 | SID255365004 | 1.15 | 5877 | inactive
TSSK4 | SID255364693 | 0.55 | 5602 | inactive
EXOSC2 | SID255356216 | -0.26 | 5742 | inactive
NOPCHAP1 | SID255362510 | 1.02 | 4922 | inactive
TLCD3A | SID255360516 | -0.76 | 4320 | inactive
GSTT2 | SID255350080 | 0.64 | 5963 | inactive
SACK1D | SID255360917 | 0.05 | 7264 | inactive
COL15A1 | SID255349027 | -0.25 | 5108 | inactive
IL16 | SID255350482 | 0.9 | 5046 | inactive
WDR45B | SID255359070 | 1.47 | 6689 | inactive
PHC3 | SID255360624 | -1.26 | 5702 | inactive
RPS27A | SID255352236 | -0.79 | 4372 | inactive
BCHE | SID255348514 | 0.34 | 4859 | inactive
CTNNA1 | SID255349160 | 0.33 | 6298 | inactive
AKAP7 | SID255354296 | -0.13 | 4608 | inactive
SCGN | SID255355207 | -0.56 | 7516 | inactive
VPS26A | SID255354373 | 0.62 | 5652 | inactive
AAMP | SID255348115 | 1.38 | 5562 | inactive
RAB18 | SID255355885 | -0.36 | 5626 | inactive
CDC20 | SID255348814 | -0.62 | 4132 | inactive
SPPL3 | SID255362536 | 1.6 | 6104 | inactive
PCDH19 | SID255359442 | -0.4 | 5156 | inactive
FBXO6 | SID255356749 | -1.79 | 5417 | inactive
PIK3C2A | SID255351577 | -2 | 3552 | inactive
HS6ST2 | SID255361789 | 1.33 | 5584 | inactive

Part of the list above in another layout:
| gene | PubChem SID | migration robust z-score | nuclei per well, duplicate mean | Outcome |
| --- | --- | --- | --- | --- |
| SH3GLB1 | SID255357475 | 0.03 | 6412 | inactive |
| PEF1 | SID255366043 | -0.16 | 5496 | inactive |
| MYH3 | SID255351099 | 1.43 | 5702 | inactive |
| KLF12 | SID255355731 | -0.93 | 5380 | inactive |
| PPTC7 | SID255363710 | -1.38 | 5464 | inactive |
| GAS2 | SID255349832 | -0.99 | 5174 | inactive |
| H2AJ | SID255358845 | -0.52 | 3862 | inactive |
| SECISBP2 | SID255360184 | 1.03 | 5642 | inactive |
| TMEM119 | SID255365004 | 1.15 | 5877 | inactive |
| TSSK4 | SID255364693 | 0.55 | 5602 | inactive |

The list goes on:
gene | PubChem SID | migration robust z-score | nuclei per well, duplicate mean | Outcome
OSER1 | SID255357764 | 0.17 | 7336 | inactive
SPOCK1 | SID255352600 | -0.33 | 6374 | inactive
HIC1 | SID255350182 | -3.79 | 6162 | active
AP2A2 | SID255348222 | -1.22 | 5294 | inactive
ACAP2 | SID255356302 | 0.14 | 6492 | inactive
FAM27E5 | SID255364744 | 0.84 | 6320 | inactive
ACTG2 | SID255348158 | -0.7 | 3134 | inactive
GCC1 | SID255360302 | -0.45 | 6556 | inactive
BRAF | SID255348577 | -3.4 | 3183 | inactive
BMP8A | SID255365299 | 1.27 | 6659 | inactive
TSEN54 | SID255364722 | -0.97 | 5818 | inactive
TRMT2B | SID255360606 | 0.8 | 5184 | inactive
UNC5C | SID255353693 | 0.36 | 5470 | inactive
SIAH1 | SID255352415 | -0.26 | 4803 | inactive
TRERF1 | SID255358880 | -1.35 | 5394 | inactive
H1-0 | SID255350123 | 0.49 | 6399 | inactive
ZMIZ1 | SID255359321 | 0.52 | 5954 | inactive
FBXL15 | SID255360253 | 0.57 | 5417 | inactive
WFIKKN1 | SID255362414 | 0.41 | 6030 | inactive
ME2 | SID255350920 | 0.96 | 6438 | inactive
C12orf57 | SID255362184 | 1.87 | 6860 | inactive
SPRYD3 | SID255361583 | -0.54 | 6402 | inactive
TBX22 | SID255357393 | -0.26 | 6074 | inactive
LRRC37A2 | SID255365990 | -0.25 | 7002 | inactive
DOLK | SID255355811 | -1.67 | 6893 | inactive
NR2F2 | SID255352827 | 0.78 | 5537 | inactive
EXOSC6 | SID255362442 | -0.24 | 4186 | inactive
HAO1 | SID255357997 | -0.26 | 6780 | inactive
SLC9A3 | SID255352479 | 1.03 | 4776 | inactive
HLA-F | SID255350213 | 0.4 | 6164 | inactive
KCNH6 | SID255360847 | -0.52 | 5292 | inactive
EPHB1 | SID255349526 | -1.12 | 4880 | inactive
SPRY1 | SID255354938 | -0.04 | 5496 | inactive
TTLL4 | SID255354446 | 0.48 | 6842 | inactive
PIAS1 | SID255353643 | 0.13 | 6161 | inactive
C22orf23 | SID255361438 | 1.67 | 4422 | inactive
HTR1A | SID255350353 | -0.16 | 4196 | inactive
GPR142 | SID255365265 | -1.04 | 4883 | inactive
UQCRQ | SID255356910 | 0.29 | 5535 | inactive
